Source: patent US9247740B2, “Isoxazoline derivatives as insecticidal compounds” (Syngenta Participations AG, priority 2011, dated 2016)
Some results were stated once for a whole list of compounds, not compound by compound. At least one compound was matched to its structure with a doubt left.

Columns and labels:
Assay type in all cases: in vivo
[1] = tested on: Spodoptera littoralis (Egyptian Cotton Leafworm); assay: Spodoptera littoralis leaf disc spray test; conditions: 200 ppm spray on cotton leaf discs; mortality, feeding behavior, growth regulation 3 days after treatment
Method: This Example illustrates the insecticidal and acaricidal properties of compounds of formula (I). Tests were performed as follows:

[2] = tested on: Heliothis virescens (Tobacco Budworm); assay: Heliothis virescens egg test on artificial diet; conditions: 200 ppm (concentration in well 18 ppm), eggs 0-24 h old on artificial diet; egg mortality, larval mortality, growth regulation after 4 days
Source text: (§1) This Example illustrates the insecticidal and acaricidal properties of compounds of formula (I).

[3] = tested on: Plutella xylostella (Diamond Back Moth); assay: Plutella xylostella larval test on artificial diet; conditions: 200 ppm (concentration in well 18 ppm), L2 larvae, larval mortality and growth regulation after 6 days
Source text: as §1

[4] = tested on: Diabrotica balteata (Corn Root Worm); assay: Diabrotica balteata larval test on artificial diet; conditions: 200 ppm (concentration in well 18 ppm), L2 larvae, larval mortality and growth regulation after 5 days
Source text: as §1

[5] = tested on: Thrips tabaci (Onion Thrips); assay: Thrips tabaci leaf disc spray test; conditions: 200 ppm spray on sunflower leaf discs, mixed ages; mortality after 7 days
Source text: as §1

[6] = tested on: Tetranychus urticae (Two-Spotted Spider Mite); assay: Tetranychus urticae leaf disc spray test; conditions: 200 ppm spray on bean leaf discs, mixed ages; egg, larval and adult mortality 8 days later
Source text: as §1

SMILES	control of Spodoptera littoralis [1]	control of Heliothis virescens [2]	control of Plutella xylostella [3]	control of Diabrotica balteata [4]	control of Thrips tabaci [5]	control of Tetranychus urticae [6]
Cc1cc(C2=NOC(c3cc(Cl)nc(Cl)c3)(C(F)(F)F)C2)ccc1C(=O)N[C@H]1C[S@@+]([O-])C1 (stereo partly drawn) [Compound A076]	at least 80%	at least 80%	at least 80%	at least 80%	at least 80%	at least 80%
Cc1cc(C2=NOC(c3ccc(OC(F)(F)F)cc3)(C(F)(F)F)C2)ccc1C(=O)NC1(C)CSC1 (stereo not drawn) [Compound A060]		at least 80%	at least 80%	at least 80%	at least 80%	at least 80%
Cc1cc(C2=NOC(c3ccnc(F)c3)(C(F)(F)F)C2)ccc1C(=O)NC1CS(=O)(=O)C1 (racemic) [Compound A066]			at least 80%		at least 80%	at least 80%
Cc1cc(C2=NOC(c3cccc([S+](C)[O-])c3)(C(F)(F)F)C2)ccc1C(=O)NC1CS(=O)(=O)C1 (stereo not drawn) [Compound A043]			at least 80%		at least 80%	
CSc1cccc(C2(C(F)(F)F)CC(c3ccc(C(=O)NC4CS(=O)(=O)C4)c(C)c3)=NO2)c1 (stereo not drawn) [Compound A016]		at least 80%	at least 80%			
Cc1cc(C2=NOC(c3ccnc(F)c3)(C(F)(F)F)C2)ccc1C(=O)NC1(C)CSC1 (racemic) [Compound A067]			at least 80%		at least 80%	at least 80%
CSc1ccc(C2(C(F)(F)F)CC(c3ccc(C(=O)NC4CS(=O)(=O)C4)c(C)c3)=NO2)cc1 (stereo not drawn) [Compound A009]			at least 80%			
Cc1cc(C2=NOC(c3ccc(C#N)cc3)(C(F)(F)F)C2)ccc1C(=O)NC1CSC1 (stereo not drawn) [Compound A008]			at least 80%		at least 80%	at least 80%
Cc1cc(C2=NOC(c3cncnc3)(C(F)(F)F)C2)ccc1C(=O)NC1CS(=O)(=O)C1 (racemic) [Compound A070]			at least 80%			
Cc1cc(C2=NOC(c3ccnc(F)c3)(C(F)(F)F)C2)ccc1C(=O)NC1CSC1 (racemic) [Compound A069]			at least 80%	at least 80%	at least 80%	at least 80%
CCOc1cccc(-c2cc(Cl)cc(C3(C(F)(F)F)CC(c4ccc(C(=O)NC5C[S+]([O-])C5)c(C)c4)=NO3)c2)c1 (stereo not drawn) [Compound A103]	at least 80%	at least 80%	at least 80%		at least 80%	at least 80%
Cc1cc(C2=NOC(c3cc(Cl)cc(-c4cnco4)c3)(C(F)(F)F)C2)ccc1C(=O)NC1C[S+]([O-])C1 (stereo not drawn) [Compound A119]	at least 80%	at least 80%	at least 80%			at least 80%
Cc1cc(C2=NOC(c3ccc(C#N)cc3)(C(F)(F)F)C2)ccc1C(=O)NC1CS(=O)(=O)C1 (stereo not drawn) [Compound A005]			at least 80%		at least 80%	at least 80%
Cc1cc(C2=NOC(c3ccc(C#N)cc3)(C(F)(F)F)C2)ccc1C(=O)NC1C[S+]([O-])C1 (stereo not drawn) [Compound A007]			at least 80%		at least 80%	
Cc1cc(C2=NOC(c3ccc(C#N)cc3)(C(F)(F)F)C2)ccc1C(=O)NC1(C)CSC1 (stereo not drawn) [Compound A006]			at least 80%	at least 80%		at least 80%
Cc1cc(C2=NOC(c3cncnc3)(C(F)(F)F)C2)ccc1C(=O)NC1C[S+]([O-])C1 (stereo not drawn) [Compound A072]			at least 80%			
Cc1cc(C2=NOC(c3cncnc3)(C(F)(F)F)C2)ccc1C(=O)NC1(C)CSC1 (racemic) [Compound A071]			at least 80%			
CSc1ccc(C2(C(F)(F)F)CC(c3ccc(C(=O)NC4(C)CSC4)c(C)c3)=NO2)cc1 (stereo not drawn) [Compound A010]			at least 80%	at least 80%		

SMILES	control of Spodoptera littoralis [1]	control of Heliothis virescens [2]	control of Plutella xylostella [3]	control of Diabrotica balteata [4]	control of Thrips tabaci [5]	control of Tetranychus urticae [6]
Cc1cc(C2=NOC(c3cc(Br)cc(-c4cc(Br)cc(Br)c4)c3)(C(F)(F)F)C2)ccc1C(=O)NC1CS(=O)(=O)C1 (stereo not drawn) [Compound A091]	at least 80%	at least 80%	at least 80%	at least 80%	at least 80%	
Cc1cc(C2=NOC(c3cc(Cl)c(OS(=O)(=O)c4ccccc4[N+](=O)[O-])c(Cl)c3)(C(F)(F)F)C2)ccc1C(=O)NC1CS(=O)(=O)C1 (stereo not drawn) [Compound A164]			at least 80%			
Cc1cc(C2=NOC(c3cccc([S+](C)[O-])c3)(C(F)(F)F)C2)ccc1C(=O)NC1C[S+]([O-])C1 (stereo not drawn) [Compound A045]			at least 80%			
Cc1cc(C2=NOC(c3ccnc(F)c3)(C(F)(F)F)C2)ccc1C(=O)NC1C[S+]([O-])C1 (stereo not drawn) [Compound A068]		at least 80%	at least 80%		at least 80%	at least 80%
Cc1cc(C2=NOC(c3cc(Cl)cc(-c4sccc4Cl)c3)(C(F)(F)F)C2)ccc1C(=O)NC1C[S+]([O-])C1 (stereo not drawn) [Compound A121]	at least 80%	at least 80%	at least 80%		at least 80%	at least 80%
CSc1cccc(C2(C(F)(F)F)CC(c3ccc(C(=O)NC4CSC4)c(C)c3)=NO2)c1 (stereo not drawn) [Compound A019]		at least 80%	at least 80%	at least 80%	at least 80%	
Cc1cc(C2=NOC(c3cc(Cl)c(SCC(F)(F)F)c(SCC(F)(F)F)c3)(C(F)(F)F)C2)ccc1C(=O)NC1C[S+]([O-])C1 (stereo not drawn) [Compound A174]	at least 80%	at least 80%	at least 80%			at least 80%
Cc1cc(C2=NOC(c3cc(Cl)cc(-c4cn(C)cn4)c3)(C(F)(F)F)C2)ccc1C(=O)NC1C[S+]([O-])C1 (racemic) [Compound A118]			at least 80%			
CSc1cccc(C2(C(F)(F)F)CC(c3ccc(C(=O)NC4C[S+]([O-])C4)c(C)c3)=NO2)c1 (stereo not drawn) [Compound A018]		at least 80%	at least 80%	at least 80%		
CSc1ccc(C2(C(F)(F)F)CC(c3ccc(C(=O)NC4C[S+]([O-])C4)c(C)c3)=NO2)cc1 (stereo not drawn) [Compound A011]			at least 80%	at least 80%		
Cc1cc(C2=NOC(c3ccc(C(F)(F)F)cc3)(C(F)(F)F)C2)ccc1C(=O)NC1(C)CSC1 (stereo not drawn) [Compound A033]	at least 80%	at least 80%	at least 80%			at least 80%
Cc1cc(C2=NOC(c3cncnc3)(C(F)(F)F)C2)ccc1C(=O)NC1CSC1 (racemic) [Compound A073]			at least 80%			
Cc1cc(C2=NOC(c3cccc([S+](C)[O-])c3)(C(F)(F)F)C2)ccc1C(=O)NC1(C)CSC1 (stereo not drawn) [Compound A044]			at least 80%			
CSc1ccc(C2(C(F)(F)F)CC(c3ccc(C(=O)NC4CSC4)c(C)c3)=NO2)cc1 (stereo not drawn) [Compound A012]			at least 80%			at least 80%
Cc1cc(C2=NOC(c3cccc(S(C)(=O)=O)c3)(C(F)(F)F)C2)ccc1C(=O)NC1CSC1 (stereo not drawn) [Compound A041]			at least 80%		at least 80%	
Cc1cc(C2=NOC(c3cccc([S+](C)[O-])c3)(C(F)(F)F)C2)ccc1C(=O)NC1CSC1 (stereo not drawn) [Compound A046]			at least 80%			
Cc1cc(C2=NOC(c3ccc(OC(F)(F)F)cc3)(C(F)(F)F)C2)ccc1C(=O)NC1CS(=O)(=O)C1 (stereo not drawn) [Compound A059]	at least 80%	at least 80%	at least 80%	at least 80%		at least 80%
CSc1cccc(C2(C(F)(F)F)CC(c3ccc(C(=O)NC4(C)CSC4)c(C)c3)=NO2)c1 (stereo not drawn) [Compound A017]		at least 80%	at least 80%	at least 80%	at least 80%	at least 80%
